Results reported in PubChem BioAssay AID540256 (National Center for Advancing Translational Sciences (NCATS), 2011).
Screen size: about 300,000 compounds; about 3,700 (1.2%) were called active. This list was built around the results that the source calls inconclusive (neither active nor inactive); the mix of calls is not that of the screen. Calls follow the shape of the full dose curve; tested in HEK293 cells. A potency beside an inconclusive call is a rough fit, not a confirmed value.

Assay: qHTS for Inhibitors of binding or entry into cells for Lassa Virus; also: nearly all actives have a fitted effect of over 50% in size
Details: Lassa virus pseudotype entry inhibition, cell reporter; activity change, negative = inhibition: at 37.9 µM (top of the series) unless noted
% is scaled to controls: 0 for no effect and ±100 for the full control effect; potency is read from the fitted curve at half-maximal effect.

Q: Which Potency does the source give for `COc1cc(NC(=O)CSc2nc(C)c(C(=O)Nc3ccccc3)c(-c3ccc(OC)c(OC)c3)c2C#N)c(OC)cc1Cl` here?
A: inconclusive: 2.82 µM [inhibitor, partial curve, poor fit]

Q: With `CCOC(=O)c1sc2nc(C)cc(-c3ccccc3)c2c1N` as the compound, how does the “activity change, negative = inhibition” value read?
A: inactive: -4.24%

Q: For `COCCn1nnnc1C(c1ccc(C(F)(F)F)cc1)N1CCOCC1` (stereo not given), which Potency is on record?
A: inconclusive: 13 µM [inhibitor, partial curve]

Q: Which “activity change, negative = inhibition” value does the source give for `Cc1ccc(Cl)cc1N1CCN(CCCNc2ncnc3onc(-c4ccc(F)cc4)c23)CC1` here?
A: inactive: -25.8% [at 46.1 µM]

Q: Which “activity change, negative = inhibition” value does the source give for `CC(C)C(=O)Nc1c(-c2ccccc2)c(=O)c2ccccc2n1C` here?
A: inactive: -16.4%

Q: Which Potency does the source give for `Cc1cc(Nc2sc(C(=O)c3ccc(F)cc3)c(N)c2C(=O)Nc2ccc(F)cc2)ccc1Cl` here?
A: inconclusive: 15.8 µM [inhibitor, single point]

Q: For `COc1ccc(N2CC3=C(C2=O)C(c2ccc(Br)cc2)NC(=O)N3C)cc1` (stereo not given), which Potency is on record?
A: inconclusive: 7.08 µM [inhibitor, partial curve]

Q: Which Potency does the source give for `N#Cc1c(NCCCO)nc(NCc2ccccc2)c2c1CCN(Cc1ccccc1)C2` here?
A: inconclusive: 22.4 µM [inhibitor, single point]

Q: For `OCCCNc1ncnc2c1[nH]c1ccccc12`, which “activity change, negative = inhibition” value is on record?
A: inactive: -3.22% [at 46.1 µM]

Q: With `O=C(Nc1ccc(-c2nc3ccccc3[nH]2)cc1)c1c(F)c(F)c(F)c(F)c1F` as the compound, how does the “activity change, negative = inhibition” value read?
A: inactive: 14.3% [at 46.1 µM]

Q: With `O=C(NCc1ccccc1Cl)c1ccc(S(=O)(=O)Nc2cccc(C(F)(F)F)c2)cc1` as the compound, how does the Potency read?
A: inconclusive: 1.12 µM [inhibitor, full curve, poor fit]

Q: With `CC1CCN(c2nc(/C=C/c3ccccc3)nc3ccccc23)CC1` as the compound, how does the Potency read?
A: inconclusive: 35.5 µM [inhibitor, single point]

Q: With `O=C(CNc1ccccc1)NN=C1CCCC1` as the compound, how does the “activity change, negative = inhibition” value read?
A: inactive: -1.14%

Q: With `CCC(C(=O)NC1CCCC1)N(C(=O)Cn1nnc(-c2ccc(C)o2)n1)c1cccc(OC)c1` (stereo not given) as the compound, how does the Potency read?
A: inconclusive: 6.31 µM [inhibitor, single point]

Q: For `O=C(CSc1ncccn1)N1CCC(Cc2ccccc2)CC1`, which Potency is on record?
A: inconclusive: 14.1 µM [inhibitor, single point]

Q: Which “activity change, negative = inhibition” value does the source give for `Nc1nonc1-c1nc2ccccc2n1CC(=O)N/N=C/c1ccc(-c2ccccc2C(=O)O)o1` here?
A: inactive: -1.98%

Q: With `COCCn1c(-c2ccc(Cl)cc2)cnc1SCC(=O)NCCc1ccc(OC)c(OC)c1` as the compound, how does the Potency read?
A: inconclusive: 6.31 µM [inhibitor, single point]

Q: Which Potency does the source give for `CCC(=O)N(Cc1c(C)nn(-c2ccccc2)c1Cl)c1ccc(Cl)cc1` here?
A: inconclusive: 7.31 µM [inhibitor, partial curve, poor fit]

Q: With `CNc1ccc(/C=C(\CCC(=O)O)c2nc3ccccc3s2)cc1[N+](=O)[O-]` as the compound, how does the Potency read?
A: inconclusive: 0.282 µM [inhibitor, full curve, poor fit]

Q: Which Potency does the source give for `CC1=C(C(=O)OC2CCCCC2)C(c2cccnc2)n2ncnc2N1` (stereo not given) here?
A: inconclusive: 6.51 µM [inhibitor, partial curve]

Q: Which Potency does the source give for `CCOC(=O)c1c(C)sc(-c2c(-c3ccc4c(c3)OCCO4)[nH]c3c2c(=O)[nH]c(=O)n3C)c1O` here?
A: inconclusive: 25.1 µM [inhibitor, single point]

Q: For `Cc1cccc[n+]1CCCCCCCCCC[n+]1ccccc1C`, which Potency is on record?
A: inconclusive: 1.26 µM [inhibitor, partial curve, poor fit]

Q: For `COc1ccc(C2NC(c3ccc(OC)cc3)C(C)C(=O)C2C)cc1` (stereo not given), which Potency is on record?
A: inconclusive: 20 µM [inhibitor, single point]

Q: Which Potency does the source give for `O=C(c1ccc(-c2ccc(Cl)cc2)o1)N1CCN(c2ccc([N+](=O)[O-])cc2Cl)CC1` here?
A: inconclusive: 25.9 µM [inhibitor, partial curve, poor fit]

Q: For `Cc1cccc(OCCN2C(=O)C(=O)c3cccc(C)c32)c1`, which “activity change, negative = inhibition” value is on record?
A: inactive: 12.2%

Q: Which Potency does the source give for `COc1ccc(N(C(=O)COc2c(C)cccc2C)S(=O)(=O)c2ccc(Cl)cc2)cc1` here?
A: inconclusive: 22.4 µM [inhibitor, single point]

Q: For `Cc1ccc(CCNc2ccccc2C)cn1`, which Potency is on record?
A: inconclusive: 25.1 µM [activator, partial curve, poor fit]

Q: Which Potency does the source give for `C/C(=N\NC(=S)Nc1ccccc1)c1c(O)n(C)c(=O)n(C)c1=O` here?
A: inconclusive: 25.9 µM [activator, single point]

Q: Which Potency does the source give for `CC1(OC(=O)c2cccs2)C(=O)C=C2C=C3CCCN3C=C2C1=O` (stereo not given) here?
A: inconclusive: 0.0473 µM [inhibitor, full curve, poor fit]

Q: With `Cc1cccc(-c2noc(-c3ccc(NCC4CCCO4)c([N+](=O)[O-])c3)n2)c1` (stereo not given) as the compound, how does the “activity change, negative = inhibition” value read?
A: inactive: 3.62% [at 46.1 µM]

Q: With `CCOC(=O)c1c(C)n(-c2ccccc2)c2ccc(OC(=O)c3ccc(OCC)c(OCC)c3)cc12` as the compound, how does the Potency read?
A: inconclusive: 4.47 µM [inhibitor, full curve, poor fit]

Q: For `CCC(N=c1cc(-c2ccc(OC)cc2)oc2ccc(C)cc12)C(=O)O` (stereo not given), which “activity change, negative = inhibition” value is on record?
A: inactive: 17.2%

Q: With `O=C(OCC(=O)N1CCOCC1)c1ccc[nH]c1=O` as the compound, how does the “activity change, negative = inhibition” value read?
A: inactive: -5.32%

Q: Which “activity change, negative = inhibition” value does the source give for `CCOC(=O)c1c(C)oc2c1c(CN1CCN(C(=O)OCC)CC1)c(O)c1ccccc12` here?
A: inactive: 15.9%

Q: For `COc1cc(SC)ccc1C(=O)Nc1c(C)cccc1C`, which “activity change, negative = inhibition” value is on record?
A: inactive: 13.7%

Q: For `N#C/C(=C\c1ccc(Sc2nc3ccccc3[nH]2)o1)c1ccccc1`, which Potency is on record?
A: inconclusive: 31.6 µM [inhibitor, single point]

Q: For `COCC(C)N1C(=O)Cc2c1nc(N)c1c(N)nc(N3CCN(c4ccccc4F)CC3)c(C#N)c21` (stereo not given), which Potency is on record?
A: inconclusive: 20.6 µM [inhibitor, single point]

Q: For `COC(=O)c1cccc(-n2c(C)cc(C=O)c2C)c1C`, which “activity change, negative = inhibition” value is on record?
A: inactive: 20.6%

Q: With `COc1ccc(OC)c(N(CC(=O)NCCSCc2ccco2)S(=O)(=O)c2ccccc2)c1` as the compound, how does the Potency read?
A: inconclusive: 22.4 µM [inhibitor, single point]

Q: For `O=C(COc1cc(Cl)ccc1Cl)Nc1ccc(Cl)cc1C(=O)c1ccccc1`, which Potency is on record?
A: inconclusive: 15.8 µM [inhibitor, single point]

Q: For `COc1ccc(-c2nn(-c3ccccc3)cc2CNCCN2CCOC2=O)c(F)c1`, which “activity change, negative = inhibition” value is on record?
A: inactive: -15.7%

Q: For `COc1ccccc1C(CNC(=O)CNC(=O)c1cccc(Cl)c1)N1CCCC1` (stereo not given), which “activity change, negative = inhibition” value is on record?
A: inactive: 3.25%

Q: For `O=C(c1cc(-c2ccccc2)nc2ccccc12)N1CCN(c2ccccn2)CC1`, which “activity change, negative = inhibition” value is on record?
A: inactive: 11.3%

Q: Which Potency does the source give for `COc1cc(NC(=O)c2ccco2)c(OC)cc1NC(=O)CSc1ncc(-c2ccc(F)cc2)[nH]1` here?
A: inconclusive: 3.66 µM [inhibitor, partial curve]

Q: For `CCOC(=O)C1(Cc2cccc(F)c2)CCN(Cc2cnn(CC)c2C)CC1`, which Potency is on record?
A: inconclusive: 5.01 µM [activator, partial curve, poor fit]

Q: Which “activity change, negative = inhibition” value does the source give for `CC(=O)N1CCN(c2ccc(NC(=O)c3ccc4c(c3)OCO4)cc2)CC1` here?
A: inactive: 3.28%

Q: Which Potency does the source give for `Cc1ccc(-c2sc(C(=O)NN)c(C)c2C#N)cc1` here?
A: inconclusive: 7.94 µM [inhibitor, partial curve, poor fit]

Q: For `COc1ccc2c(c1)[nH]c1c(=O)n(/N=C/c3ccc(OC)c(COc4ccccn4)c3)cnc12`, which “activity change, negative = inhibition” value is on record?
A: inactive: -2.1%

Q: With `Cc1ccc(NC(=O)C(OC(=O)c2cc(C)oc2C)c2ccccc2)cc1` (stereo not given) as the compound, how does the “activity change, negative = inhibition” value read?
A: inactive: -5.75%

Q: Which Potency does the source give for `CCOc1ccc(-c2c(C#N)c(N)nc3c2c(=O)n(C)c(=O)n3C)cc1OC` here?
A: inconclusive: 12.6 µM [activator, single point]

Q: For `CC1(C)Cc2c(C#N)c(SCCC#N)nc(N3CCOCC3)c2CS1`, which “activity change, negative = inhibition” value is on record?
A: inactive: -2.34%

Q: With `COc1cccc(CN2C(=O)c3ccccc3Sc3ccc(C(=O)NCCc4ccc(Cl)cc4)cc32)c1` as the compound, how does the “activity change, negative = inhibition” value read?
A: inactive: -9.37% [at 46.1 µM]

Q: Which “activity change, negative = inhibition” value does the source give for `CCCOc1ccc(OC(=O)c2c(-c3ccccc3Cl)noc2C)cc1` here?
A: inactive: -0.941% [at 46.1 µM]

Q: For `CCC(=O)OC1CCC2C3CCC4CC(=O)C=CC4(C)C3CCC12C` (stereo not given), which Potency is on record?
A: inconclusive: 15.8 µM [inhibitor, partial curve, poor fit]

Q: For `COc1ccc(NC(=O)Cn2c(=O)n(-c3ccc(CC(=O)NCC4CCCO4)cc3)c(=O)c3ccccc32)c(OC)c1` (stereo not given), which Potency is on record?
A: inconclusive: 10 µM [inhibitor, partial curve]

Q: Which “activity change, negative = inhibition” value does the source give for `Cn1nnnc1SCc1ccc([N+](=O)[O-])cc1` here?
A: inactive: 8.98%

Q: Which Potency does the source give for `CC(NC(=O)CCc1nnc(-c2ccc(-c3ccccc3)cc2)o1)c1nc2ccccc2[nH]1` (stereo not given) here?
A: inconclusive: 25.1 µM [inhibitor, single point]

Q: With `COc1cccc(-n2c(SCC(=O)N3CCCCC3)nc3c([nH]c4ccccc43)c2=O)c1` as the compound, how does the Potency read?
A: inconclusive: 6.31 µM [inhibitor, single point]

Q: With `Cc1cccc(Nc2nnc(C)c(=O)n2N)c1` as the compound, how does the Potency read?
A: inconclusive: 6.51 µM [activator, single point]

Q: For `O=C(CCc1ccccc1)OCCN1CCOCC1`, which “activity change, negative = inhibition” value is on record?
A: inactive: -14.2%

Q: With `CC(=O)Nc1ccc(NC(=O)C(Cc2ccccc2)N2Cc3ccccc3C2=O)cc1` (stereo not given) as the compound, how does the “activity change, negative = inhibition” value read?
A: inactive: -19.8% [at 46.1 µM]

Q: For `COC(=O)c1c(-c2c(Cl)cccc2Cl)noc1NC(=O)NN1CCCCC1`, which Potency is on record?
A: inconclusive: 5.62 µM [inhibitor, single point]

Q: Which Potency does the source give for `Cc1ccc(NC(=O)Cn2c(=O)n(CCC(=O)NCCc3ccccc3)c(=O)c3ccccc32)cc1` here?
A: inconclusive: 3.55 µM [inhibitor, partial curve, poor fit]

Q: With `O=C(NCc1ccco1)C1CC(c2ccc(Cl)cc2)=NO1` (stereo not given) as the compound, how does the “activity change, negative = inhibition” value read?
A: inactive: -3.82% [at 46.1 µM]

Q: For `COc1ccccc1C(=O)NC(=S)Nc1cccnc1Cl`, which Potency is on record?
A: inconclusive: 2.51 µM [inhibitor, full curve, poor fit]

Q: With `CC(OC(=O)CCc1cc(C(C)(C)C)c(O)c(C(C)(C)C)c1)C(=O)NC1CC1` (stereo not given) as the compound, how does the Potency read?
A: inconclusive: 12.6 µM [inhibitor, partial curve, poor fit]

Q: For `COc1cccc(-c2nnc(SCc3nc4ccccc4s3)n2C)c1`, which “activity change, negative = inhibition” value is on record?
A: inactive: 2.67%

Q: Which Potency does the source give for `CCN(CC)CCCC(C)Nc1nccc2cccc(Cl)c12` (stereo not given) here?
A: inconclusive: 12.6 µM [inhibitor, single point]

Q: Which “activity change, negative = inhibition” value does the source give for `Cc1ccc(NC(=S)NNC(C)(C)C)cc1` here?
A: inactive: 1.41%

Q: For `O=C(CN1CCN(Cc2ccccc2)CC1)NC(=O)NCc1ccco1`, which Potency is on record?
A: inconclusive: 5.62 µM [activator, full curve, poor fit]
